Test results: US20030228566A1, “Method of and apparatus for screening for drug candidates” (BioTechPlex Corporation, priority 2002, published 2003)
At least one structure is not confirmed: it was looked up by name or label, or the drawing left a doubt.

Tested on: normal human bronchial epithelial cells (NHBE)
Assay: Cumulative dose kinetic responses of intracellular Ca++, Cl- and cell membrane potential (simultaneous three-fluorophore photon counting: Fluo-3, di-MEQ, RH421)
Assay type: cell-based
Conditions: cumulative dosing
Procedure: Normal human bronchial/tracheal epithelial cells (NHBE, Clonetics) were cultured in T-25 cm^2 flasks at 37° C., 5% CO2 using Bronchial/Tracheal Epithelial Cell Growth Medium containing Retinoic Acid (BEGM, w/RA, Clonetics). When the NHBE cells in the T-25 flasks reached 60%-80% confluency, the cells were passaged using a seeding density of 3500 cells/cm^2. A portion of the cells was passaged in T-25 flasks again while the remaining cells were seeded on UV-exposed Vitrogen (pH balanced 1:1 BEGM to Vitrogen) coated 4-well cover glass chambers (LabTek II). NHBE cells normally attached to the collagen-coated cover glass chamber within 24 hrs. Prior to these cells reaching 60% confluency, they were used for all the experiments described below. Cells used in all the experiments were either 2nd or 3rd passage cells maintained in Bronchial/Tracheal Epithelial Cell Growth Medium with Retinoic Acid (BEGM, w/RA, Clonetics).
The following procedures for loading the cells with fluorophore were employed. Balanced Hank's (BH) solution without phenol red was used as the medium for all the fluorophore preparations and cell washings unless stated otherwise. Fluo-3 (a Ca^++ indicator), di-MEQ (a Cl^− indicator) and RH421 (a cell membrane potential indicator) were loaded into cells sequentially at room temperature. Cells were first incubated with 8 μM Fluo-3 solution for 60 minutes, followed by incubating with 50 μM di-MEQ for 5 minutes and then finally with 10 μM RH421 for 5 minutes. Extraneous dyes were washed with BH solution between each fluorophore loading procedure. The cells were allowed to stabilize in BEGM for a minimum of 15 minutes at room temperature prior to the beginning of each experiment.
Experiments were performed at room temperature. All tested agents were prepared in Balanced Hank's Solution. One of the wells of the cover glass chamber was placed on the stage of the inverted microscope and the cells loaded with the fluorophores were visually focused with the violet, green and orange emitted light from the cells approximately in the same focal plane. At a sampling frequency of 100 Hz, cells with the following photon counts were chosen for the study: 20 to 50 counts per channel (cpc) for Ca^++ fluorescence, 70 to 200 cpc for Cl^− fluorescence, and 20 to 50 cpc for cell membrane potential fluorescence. After establishing a 2 minute baseline, increasing doses of the agent of interest were added topically to the wells 2 minutes apart. At the end of each experiment, a toxic dose of the agent of interest was added to the sample to either shrink or swell the cells beyond their normal cell volume regulatory range. This caused the fluorescence signals of each of these fluorophores to reach either maximum or minimum values. […] Background fluorescence was recorded using a cell free area of the same well. If the signal to background ratio was not higher than a factor of 10, the experiments were also discarded.

## O=c1[nH]c2cc(C(F)(F)F)ccc2n1-c1cc(C(F)(F)F)ccc1O [NS 1619, 1,3-dihydro-1-[2-hydroxy-5-(trifluoromethyl)phenyl]-5-(trifluoromethyl)-2H-benzimidazol-2-one]
Concentration 0.01 mM
  intracellular Ca++ response: essentially no change
  intracellular Cl- response: essentially no change
  membrane potential response: small increase
Concentration 0.1 mM
  intracellular Ca++ response: essentially unchanged
  intracellular Cl- response: essentially unchanged
  membrane potential response: small increase
Concentration 1 mM
  intracellular Ca++ response: sharp increase
  intracellular Cl- response: sharp decrease
  membrane potential response: sharp increase
